# In PubChem BioAssay AID493237 (Broad Institute, 2011):
# All entries are inconclusive by the source's own rule. Clear calls are listed elsewhere.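 The calls were made as follows: active = fitted curve reaching 40% activation at a concentration no higher than the top valid dose tested; inconclusive = flat curve between 30 and 70% activation, or poor fit; inactive = the rest, including opposite-direction effects.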
# Assay: HRE reporter activators under added iron – cell-based, U2OS, luminescence, dry powder, set 2, mechanism study for HIF pathway activator project, dose response (AID 493237)
# Settings: U2OS HRE-luciferase reporter, iron condition; at 38 µM (top of the series)
# Procedure, shortened: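 System: Human U2OS osteosarcoma cells with stable 3×HRE-driven luciferase reporter | Quantity: 6,000 cells per well | Also added: Ferric nitrate at 50 µM final, added before compound | Dosing: 8-point series in threefold dilution steps | Timing: 24 h plating, then 24 h compound exposure at 37 °C | Measured by: Steady-Glo luminescence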
structure (smiles),measurement,value
Oc1ccc(CN2CCc3ccccc3C2)c2cccnc12,activation,inconclusive: -50.9%
